In publication PMC3071809, “Recombinant Complement Receptor 2 Radiolabeled with [^99mTc(CO)3]^+ : A Potential New Radiopharmaceutical for Imaging Activated Complement” (PLoS ONE, 2011):
These are yes or no findings as the source states them, for the method shown. Some entries that bind do so weakly or less than the wild type.

Chains of the proteins cited; added tags and fusions are not shown. Residues count along the entry.
UniProt P01024, residues 1002-1303: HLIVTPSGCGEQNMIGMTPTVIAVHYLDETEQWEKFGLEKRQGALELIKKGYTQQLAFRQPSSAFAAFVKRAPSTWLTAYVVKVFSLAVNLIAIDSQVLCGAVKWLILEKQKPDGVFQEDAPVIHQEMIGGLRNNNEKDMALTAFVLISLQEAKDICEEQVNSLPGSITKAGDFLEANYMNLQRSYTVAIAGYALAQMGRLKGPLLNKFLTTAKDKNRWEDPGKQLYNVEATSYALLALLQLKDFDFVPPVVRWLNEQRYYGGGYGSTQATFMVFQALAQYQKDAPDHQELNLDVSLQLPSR

Tests used:
[1] = target: human C3d deposited on sensitized sheep red blood cells (human C3d+ RBC) (human (from human C6 deficient serum)) (UniProt P01024); assay: flow cytometry on cells; 1.5 µM rCR2, C2A or K41E CR2 with 2.5×10^7 human C3d+ sheep RBC in PBS and 2 mM EDTA, 60 min; anti-HIS-FITC; only the binder purified
[2] = target: human C3d deposited on sensitized sheep red blood cells (human C3d+ RBC) (human (from human C6 deficient serum)) (UniProt P01024); assay: condition: only after pre-incubation with 10 µg/mL anti-human C3d; flow cytometry on cells; as a5, but C3d+ RBC pre-incubated with 10 µg/mL anti-human C3d before rCR2 and anti-HIS-FITC; only the binder purified
[3] = target: recombinant Complement Receptor 2 (rCR2), Short Consensus Repeats 1 and 2 of human CR2 with the C-terminal sequence … (human) (UniProt P20023); assay: SEC; preparative Sephacryl 100 column, PBS pH 7.4 and 0.5 M NaCl, 1 mL/min; both purified
[4] = target: human C3d deposited on sensitized sheep red blood cells (human C3d+ RBC) (human (from human C6 deficient serum)) (UniProt P01024); assay: radioligand binding; as a8, but C3d+ RBC incubated with 10 µg/mL anti-human C3d followed by ^99mTc-rCR2; only the binder purified
[5] = target: human C3d deposited on sensitized sheep red blood cells (human C3d+ RBC) (human (from human C6 deficient serum)) (UniProt P01024); assay: radioligand binding; ^99mTc-labeled proteins with 2.5×10^7 human C3d+ sheep RBC; washed five times with PBS; cell pellet gamma counted, percent of total radioactivity; only the binder purified

Row | Binder | binding [1] | binding [2] | binding [3] | binding [4] | binding [5]
1 | recombinant Complement Receptor 2 (rCR2), Short Consensus Repeats 1 and 2 of human CR2 with the C-terminal sequence … (domain or fragment, UniProt P20023 21-154, looked up, complement receptor type 2 (CR2, CD21), human, residues 21-154: SCR1, SCR2 and the SCR2 to SCR3 linker VFPLEC; 15.5 kDa; cloned in pET-24a (NdeI/EcoRI); also called recombinant CR2; SCR1/2 fragment; not shown: His6, C-terminal, kept) ISCGSPPPILNGRISYYSTPIAVGTVIRYSCSGTFRLIGEKSLLCITKDKVDGTWDKPAPKCEYFNKYSSCPEPIVPGGYKIRGSTPYRHGDSVTFACKTNFSMNGNKSVWCQANNMWGPTRLPTCVSVFPLEC | binds | no binding | no binding |  | 
2 | ^99mTc-rCR2 (rCR2 radiolabeled with [^99mTc(CO)3]^+ on the His-tag) (domain or fragment, human, UniProt P20023 21-154, looked up, [^99mTc(CO)3]^+ on the C-terminal His-tag, complement receptor type 2 (CR2), human, residues 21-154, as m1; m1 with the radiolabel; also called rCR2-Tc^99m; rCR2-[^99mTc(CO)3]; source: labeled with [^99mTc(CO)3(OH2)3]^+ at 37°C; not shown: His6, C-terminal, kept) ISCGSPPPILNGRISYYSTPIAVGTVIRYSCSGTFRLIGEKSLLCITKDKVDGTWDKPAPKCEYFNKYSSCPEPIVPGGYKIRGSTPYRHGDSVTFACKTNFSMNGNKSVWCQANNMWGPTRLPTCVSVFPLEC |  |  |  | no binding (condition: with 10 µg/mL anti-human C3d) | binds
